Data taken from paper PMC6873818.
No constants are given. Whether binding was seen depends on the method and setting. Some entries that bind do so weakly or less than the wild type. Blank lines part the entries; values can stand above or below the molecule they belong to.

Amino acid sequences for entries named in this document (tags omitted).
UniProt Q71RC2: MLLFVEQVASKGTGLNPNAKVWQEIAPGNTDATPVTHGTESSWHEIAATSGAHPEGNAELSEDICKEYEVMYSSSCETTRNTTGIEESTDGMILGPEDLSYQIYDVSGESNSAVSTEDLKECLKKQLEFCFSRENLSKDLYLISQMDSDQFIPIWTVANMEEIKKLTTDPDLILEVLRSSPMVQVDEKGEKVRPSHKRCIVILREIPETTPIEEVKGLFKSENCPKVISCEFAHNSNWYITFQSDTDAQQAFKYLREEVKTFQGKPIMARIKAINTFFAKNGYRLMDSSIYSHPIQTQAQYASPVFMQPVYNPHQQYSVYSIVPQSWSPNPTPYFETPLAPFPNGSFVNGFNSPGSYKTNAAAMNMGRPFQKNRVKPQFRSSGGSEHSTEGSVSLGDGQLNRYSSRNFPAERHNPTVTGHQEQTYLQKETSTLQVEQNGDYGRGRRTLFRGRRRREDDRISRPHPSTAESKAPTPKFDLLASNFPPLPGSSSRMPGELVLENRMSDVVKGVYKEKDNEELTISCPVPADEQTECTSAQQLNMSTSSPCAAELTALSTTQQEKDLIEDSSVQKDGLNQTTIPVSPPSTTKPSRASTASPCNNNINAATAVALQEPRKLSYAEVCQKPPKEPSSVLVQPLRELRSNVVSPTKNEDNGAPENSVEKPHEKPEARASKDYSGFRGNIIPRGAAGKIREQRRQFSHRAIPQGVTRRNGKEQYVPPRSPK
UniProt Q9NRL2: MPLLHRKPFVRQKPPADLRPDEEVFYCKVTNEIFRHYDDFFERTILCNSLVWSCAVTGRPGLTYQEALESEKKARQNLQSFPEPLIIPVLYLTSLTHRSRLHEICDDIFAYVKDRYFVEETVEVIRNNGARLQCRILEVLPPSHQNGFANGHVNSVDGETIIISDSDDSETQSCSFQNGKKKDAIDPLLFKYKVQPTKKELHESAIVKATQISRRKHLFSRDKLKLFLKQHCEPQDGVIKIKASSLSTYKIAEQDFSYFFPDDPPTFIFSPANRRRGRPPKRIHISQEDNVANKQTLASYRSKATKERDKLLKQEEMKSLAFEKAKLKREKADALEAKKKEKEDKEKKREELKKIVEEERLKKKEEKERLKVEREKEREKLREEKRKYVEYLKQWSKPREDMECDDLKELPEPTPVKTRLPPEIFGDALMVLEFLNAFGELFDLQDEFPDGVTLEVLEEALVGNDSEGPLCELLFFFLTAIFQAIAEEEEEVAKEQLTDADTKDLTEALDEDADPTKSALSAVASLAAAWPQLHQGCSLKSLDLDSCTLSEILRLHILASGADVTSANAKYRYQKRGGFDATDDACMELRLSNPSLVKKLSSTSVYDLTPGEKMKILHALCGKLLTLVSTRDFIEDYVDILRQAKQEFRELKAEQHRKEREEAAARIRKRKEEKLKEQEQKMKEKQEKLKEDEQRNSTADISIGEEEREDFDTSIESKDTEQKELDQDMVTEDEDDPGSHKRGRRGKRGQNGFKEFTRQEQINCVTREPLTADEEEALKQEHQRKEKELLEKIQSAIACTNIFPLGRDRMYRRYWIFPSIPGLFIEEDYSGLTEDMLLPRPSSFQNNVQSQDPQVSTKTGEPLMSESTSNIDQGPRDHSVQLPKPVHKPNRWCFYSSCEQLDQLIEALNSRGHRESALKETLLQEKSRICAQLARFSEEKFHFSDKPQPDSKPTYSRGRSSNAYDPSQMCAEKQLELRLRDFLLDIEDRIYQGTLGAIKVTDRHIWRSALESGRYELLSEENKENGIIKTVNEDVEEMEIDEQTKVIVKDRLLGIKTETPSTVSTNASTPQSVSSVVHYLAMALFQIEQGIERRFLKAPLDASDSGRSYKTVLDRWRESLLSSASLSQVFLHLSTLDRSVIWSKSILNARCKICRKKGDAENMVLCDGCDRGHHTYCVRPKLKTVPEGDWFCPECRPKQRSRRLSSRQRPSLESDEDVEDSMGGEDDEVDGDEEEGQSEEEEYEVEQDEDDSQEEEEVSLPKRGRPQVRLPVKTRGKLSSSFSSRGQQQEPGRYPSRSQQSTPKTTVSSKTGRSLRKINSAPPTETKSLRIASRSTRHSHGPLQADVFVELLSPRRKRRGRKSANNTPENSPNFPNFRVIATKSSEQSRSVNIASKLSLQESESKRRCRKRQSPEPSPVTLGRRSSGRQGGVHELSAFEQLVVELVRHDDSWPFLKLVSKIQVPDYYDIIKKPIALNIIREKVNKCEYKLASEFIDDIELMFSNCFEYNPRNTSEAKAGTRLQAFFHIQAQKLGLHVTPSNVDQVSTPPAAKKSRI
UniProt Q92615: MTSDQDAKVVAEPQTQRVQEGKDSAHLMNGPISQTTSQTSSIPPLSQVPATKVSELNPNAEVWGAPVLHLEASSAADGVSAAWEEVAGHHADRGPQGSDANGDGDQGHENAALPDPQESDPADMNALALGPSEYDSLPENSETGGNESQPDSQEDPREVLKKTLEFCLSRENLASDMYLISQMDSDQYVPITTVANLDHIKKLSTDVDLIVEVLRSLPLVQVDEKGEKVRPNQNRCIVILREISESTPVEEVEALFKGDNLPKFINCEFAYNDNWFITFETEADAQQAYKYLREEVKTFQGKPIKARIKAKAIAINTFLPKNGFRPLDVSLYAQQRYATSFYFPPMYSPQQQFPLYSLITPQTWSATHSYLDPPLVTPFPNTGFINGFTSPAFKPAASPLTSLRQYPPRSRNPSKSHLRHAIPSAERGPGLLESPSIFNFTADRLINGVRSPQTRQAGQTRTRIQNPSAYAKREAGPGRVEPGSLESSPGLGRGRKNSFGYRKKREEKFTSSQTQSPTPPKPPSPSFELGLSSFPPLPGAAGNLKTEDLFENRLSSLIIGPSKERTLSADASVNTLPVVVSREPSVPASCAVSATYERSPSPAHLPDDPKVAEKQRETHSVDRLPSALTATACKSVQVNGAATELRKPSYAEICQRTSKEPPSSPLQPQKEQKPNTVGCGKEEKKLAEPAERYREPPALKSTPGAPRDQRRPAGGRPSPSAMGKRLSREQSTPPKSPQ
UniProt O60264: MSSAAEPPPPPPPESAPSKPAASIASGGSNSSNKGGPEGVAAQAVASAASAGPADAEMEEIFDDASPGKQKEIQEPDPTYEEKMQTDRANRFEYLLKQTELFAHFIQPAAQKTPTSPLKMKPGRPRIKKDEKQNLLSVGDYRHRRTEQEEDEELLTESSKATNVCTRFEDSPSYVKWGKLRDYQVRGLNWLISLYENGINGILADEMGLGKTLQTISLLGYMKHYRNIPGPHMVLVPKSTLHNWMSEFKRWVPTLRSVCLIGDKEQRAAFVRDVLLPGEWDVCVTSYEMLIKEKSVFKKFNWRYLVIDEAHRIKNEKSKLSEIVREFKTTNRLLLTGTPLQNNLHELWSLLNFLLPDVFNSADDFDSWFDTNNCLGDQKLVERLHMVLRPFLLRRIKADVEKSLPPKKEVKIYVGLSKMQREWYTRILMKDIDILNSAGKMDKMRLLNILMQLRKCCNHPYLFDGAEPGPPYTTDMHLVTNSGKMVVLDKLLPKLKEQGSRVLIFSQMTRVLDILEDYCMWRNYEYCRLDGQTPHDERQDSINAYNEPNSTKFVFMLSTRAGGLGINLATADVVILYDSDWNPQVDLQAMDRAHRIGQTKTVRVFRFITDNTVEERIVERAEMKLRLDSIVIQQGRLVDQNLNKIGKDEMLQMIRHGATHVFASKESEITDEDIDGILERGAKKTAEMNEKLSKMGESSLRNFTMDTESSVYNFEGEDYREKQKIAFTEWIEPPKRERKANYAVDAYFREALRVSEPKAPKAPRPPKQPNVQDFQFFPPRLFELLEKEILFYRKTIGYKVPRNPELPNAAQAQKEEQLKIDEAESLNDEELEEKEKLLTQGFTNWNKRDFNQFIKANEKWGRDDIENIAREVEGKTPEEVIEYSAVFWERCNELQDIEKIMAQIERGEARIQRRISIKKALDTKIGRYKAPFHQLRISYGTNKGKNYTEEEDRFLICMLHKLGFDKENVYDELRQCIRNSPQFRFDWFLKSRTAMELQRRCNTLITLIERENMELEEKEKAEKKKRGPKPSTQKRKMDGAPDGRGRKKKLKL

What was measured:
[1] = biological target: LARP4 (human (endogenous in HEK293T)) (UniProt Q71RC2); assay: SEC; DIF-FRAC RNase A-treated sample (co-fractionation mass spectrometry): clarified HEK293T lysate with RNase A (80 ug, 30 min, room temperature), native SEC on BioSep-SEC-s4000 in PBS pH 7.2, 50 fractions, proteins of each fraction identified by LC-MS/MS; co-elution of elution profiles
[2] = biological target: LARP4 (human (endogenous in HEK293T)) (UniProt Q71RC2); assay: SEC; DIF-FRAC control sample (co-fractionation mass spectrometry): clarified HEK293T lysate without RNase A, native SEC on BioSep-SEC-s4000 in PBS pH 7.2, 50 fractions, proteins of each fraction identified by LC-MS/MS; co-elution of elution profiles
[3] = biological target: BAZ1A (human (endogenous in HEK293T)) (UniProt Q9NRL2); assay: as above
[4] = biological target: T1, FLII (human (endogenous in HEK293T)) (UniProt Q13045); assay: SEC; DIF-FRAC RNase A-treated sample (co-fractionation mass spectrometry): clarified HEK293T lysate with RNase A (80 ug, 30 min, room temperature), native SEC on BioSep-SEC-s4000 in PBS pH 7.2, 50 fractions, proteins of each fraction identified by LC-MS/MS; co-elution of elution profiles
T1 sequence: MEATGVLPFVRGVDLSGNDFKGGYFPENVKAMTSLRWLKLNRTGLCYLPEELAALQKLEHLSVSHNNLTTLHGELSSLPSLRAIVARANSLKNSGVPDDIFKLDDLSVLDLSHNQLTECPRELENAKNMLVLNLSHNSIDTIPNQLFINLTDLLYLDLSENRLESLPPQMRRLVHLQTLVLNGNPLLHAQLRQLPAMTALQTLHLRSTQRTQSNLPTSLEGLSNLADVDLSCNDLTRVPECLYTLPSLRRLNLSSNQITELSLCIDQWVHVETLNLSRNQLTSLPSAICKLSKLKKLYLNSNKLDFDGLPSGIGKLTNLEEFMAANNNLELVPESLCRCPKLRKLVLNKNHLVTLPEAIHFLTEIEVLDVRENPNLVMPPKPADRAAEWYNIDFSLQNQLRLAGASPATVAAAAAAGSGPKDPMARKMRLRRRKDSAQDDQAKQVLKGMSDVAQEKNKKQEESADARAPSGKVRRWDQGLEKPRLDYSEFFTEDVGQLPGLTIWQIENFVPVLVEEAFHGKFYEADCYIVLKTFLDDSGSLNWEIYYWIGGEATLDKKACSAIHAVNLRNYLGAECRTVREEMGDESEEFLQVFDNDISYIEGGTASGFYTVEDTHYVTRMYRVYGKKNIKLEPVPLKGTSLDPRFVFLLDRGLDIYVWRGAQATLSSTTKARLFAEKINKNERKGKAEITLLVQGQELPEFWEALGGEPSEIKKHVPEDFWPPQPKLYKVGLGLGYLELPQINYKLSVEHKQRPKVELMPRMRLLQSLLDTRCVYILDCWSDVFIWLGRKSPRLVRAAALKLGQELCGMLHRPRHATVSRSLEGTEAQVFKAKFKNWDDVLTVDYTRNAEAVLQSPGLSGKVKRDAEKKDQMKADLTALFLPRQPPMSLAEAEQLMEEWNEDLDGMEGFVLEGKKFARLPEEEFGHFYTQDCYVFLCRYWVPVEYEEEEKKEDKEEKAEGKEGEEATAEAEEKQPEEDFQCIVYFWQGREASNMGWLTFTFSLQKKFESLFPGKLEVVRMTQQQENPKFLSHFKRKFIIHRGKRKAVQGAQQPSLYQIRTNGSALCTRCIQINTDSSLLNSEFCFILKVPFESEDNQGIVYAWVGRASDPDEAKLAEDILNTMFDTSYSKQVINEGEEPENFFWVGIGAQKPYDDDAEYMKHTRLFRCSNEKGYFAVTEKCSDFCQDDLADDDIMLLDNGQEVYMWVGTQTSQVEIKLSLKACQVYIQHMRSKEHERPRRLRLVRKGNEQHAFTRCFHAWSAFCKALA

[5] = biological target: T1, FLII (human (endogenous in HEK293T)); assay: SEC; DIF-FRAC control sample (co-fractionation mass spectrometry): clarified HEK293T lysate without RNase A, native SEC on BioSep-SEC-s4000 in PBS pH 7.2, 50 fractions, proteins of each fraction identified by LC-MS/MS; co-elution of elution profiles

binding [1]: binds | binding [2]: binds
Molecule: LARP4B (from UniProt Q92615 1-738)

binding [3]: binds
Molecule: SMARCA5 (from UniProt O60264 1-1052)

binding [4]: binds | binding [5]: binds
B1: LRRFIP1 (protein, UniProt Q32MZ4 1-808)
chain: MTSPAAAQSREIDCLSPEAQKLAEARLAAKRAARAEAREIRMKELERQQKEEDSERYSRRSRRNTSASDEDERMSVGSRGSLRVEERPEKDFTEKGSRNMPGLSAATLASLGGTSSRRGSGDTSISIDTEASIREIKELNELKDQIQDVEGKYMQGLKEMKDSLAEVEEKYKKAMVSNAQLDNEKTNFMYQVDTLKDMLLELEEQLAESRRQYEEKNKEFEREKHAHSILQFQFAEVKEALKQREEMLEKHGIILNSEIATNGETSDTLNNVGYQGPTKMTKEELNALKSTGDGTLGRASEVEVKNEIVANVGKREILHNTEKEQHTEDTVKDCVDIEVFPAGENTEDQKSSEDTAPFLGTLAGATYEEQVQSQILESSSLPENTVQVESNEVMGAPDDRTRTPLEPSNCWSDLDGGNHTENVGEAAVTQVEEQAGTVASCPLGHSDDTVYHDDKCMVEVPQELETSTGHSLEKEFTNQEAAEPKEVPAHSTEVGRDHNEEEGEETGLRDEKPIKTEVPGSPAGTEGNCQEATGPSTVDTQNEPLDMKEPDEEKSDQQGEALDSSQKKTKNKKKKNKKKKSPVPVETLKDVKKELTYQNTDLSEIKEEEQVKSTDRKSAVEAQNEVTENPKQKIAAESSENVDCPENPKIKLDGKLDQEGDDVQTAAEEVLADGDTLDFEDDTVQSSGPRAGGEELDEGVAKDNAKIDGATQSSPAEPKSEDADRCTLPEHESPSQDISDACEAESTERCEMSEHPSQTVRKALDSNSLENDDLSAPGREPGHFNPESREDTRGGNEKGKSKEDCTMS
